Measured values from the supplement of paper PMC12889115.
The other results are listed elsewhere or left out. These are raw signals, not scaled to a control.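 In the initial screen, polymyxin B was used at a concentration that permeabilizes Salmonella's outer membrane but not its inner membrane. Maximum growth was set by DMSO wells with or without polymyxin B. Since plates varied, data were ranked per plate, and compounds giving the lowest OD600 advanced as hits.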

Test system: Salmonella enterica serovar Typhimurium SL1344
Test: bacterial growth OD600 after 18 h with compound and polymyxin B; higher = more bacterial growth (less inhibition)
Conditions: 50 µM, Mueller-Hinton broth

SMILES | bacterial growth OD600 (polymyxin B 1 µg/mL) | bacterial growth OD600 (polymyxin B 0.75 µg/mL)
COc1cc(CN2CCN(Cc3cc(OC)ccc3F)CC2CCO)cc(OC)c1 (configuration not stated) | 0.963 | –
O=C1O[C@@H]2CN(c3ccnc(CO)c3)C[C@@H]2N1CCc1ccc(F)cc1 | – | 0.829
COc1ccccc1CN1CCC(C(Cc2ccccc2Cl)N(C)C(=O)c2ccco2)CC1 (configuration not stated) | – | 0.786
COC(=O)CCCNc1nncc(-c2c(OC)cccc2OC)n1 | 0.863 | –
COc1ccc(NC2CCCN(C(=O)C3=NNC(=O)CC3)C2)cc1 (configuration not stated) | 0.875 | –
OC1(Cc2cc(-c3ccccc3)no2)CCN(CCCC(F)(F)F)CC1 | 0.816 | –
CCOC(=O)C1(Cc2ccccc2C)CCCN(C2CCOCC2)C1 (configuration not stated) | 0.646 | –
CN1CCN(Cc2cccc(OCC(O)CN(C)C3CCCCC3)c2)CC1 (configuration not stated) | 0.89 | –
COC(=O)[C@@H](C)NC(=O)c1cc(OC)ccc1OC1CCN(C(=O)C2CC2)CC1 | 1.13 | –
O=C(c1cc(COc2cccc(F)c2)[nH]n1)N1CCC(N2CCSCC2)CC1 | 0.985 | –
O=C(NCc1cccnc1Oc1cccc(C(F)(F)F)c1)c1cn[nH]c1 | – | 0.056
CCc1ccc(CN(C)C(=O)c2cn(CC3COc4ccccc4O3)nn2)cc1 (configuration not stated) | 0.009 | –
O=C(CCN1CCCO1)N1CCCC(CCc2ccc(F)c(F)c2)C1 (configuration not stated) | – | 0.684
CCC(CC)C(=O)NCC1Cc2cccc(-c3ncccc3C)c2O1 (configuration not stated) | – | 0.819
CCOc1ccc(-c2nc(CN(C)C(C)c3cccc(OC)c3)c(C)o2)cc1 (configuration not stated) | 0.704 | –
CCOC(=O)CC1CCCCN1Cc1cn(C)nc1-c1ccc2c(c1)OCCO2 (configuration not stated) | 0.803 | –

Three structures from above, ordered by SMILES length, falling.
SMILES | bacterial growth OD600 (polymyxin B 1 µg/mL) | bacterial growth OD600 (polymyxin B 0.75 µg/mL)
COC(=O)[C@@H](C)NC(=O)c1cc(OC)ccc1OC1CCN(C(=O)C2CC2)CC1 | 1.13 | –
O=C(CCN1CCCO1)N1CCCC(CCc2ccc(F)c(F)c2)C1 (configuration not stated) | – | 0.684
CCC(CC)C(=O)NCC1Cc2cccc(-c3ncccc3C)c2O1 (configuration not stated) | – | 0.819

Going on with the list:

SMILES | bacterial growth OD600 (polymyxin B 1 µg/mL) | bacterial growth OD600 (polymyxin B 0.75 µg/mL)
COc1ccc(CCC2CCCN(C3CCN(C(C)=O)CC3)C2)cc1 (configuration not stated) | – | 0.931
O=C(Cc1ccccc1)Nc1ccnn1C1CCN(C2CCCCC2)CC1 | 0.833 | –
CC(=O)c1cccc(OCc2cc(C(=O)N(C)Cc3cccnc3)n[nH]2)c1 | 0.929 | –
Cc1cc(C(=O)N2CCc3c([nH]c4ccccc34)C2c2ccc(F)cc2)no1 (configuration not stated) | 0.003 | –
CCN1CC(CN(C)c2nc3nonc3nc2NC2CCCC2)CC1=O (configuration not stated) | 0.88 | –
COCCNC(=O)c1ccc(OC)cc1OC1CCN(CC2CCCC2)CC1 | 0.905 | –
O=C(CCC1CCCC1)N1CCC(C2CCN(c3ncccn3)CC2)C1 (configuration not stated) | – | 0.274
CC1(C(=O)N2CCCC(N3CCN(Cc4ccc5c(c4)OCO5)CC3)C2)CC1 (configuration not stated) | 1.2 | –
COc1cccc(CNC(=O)CCC2CCCN(C(=O)c3ccc4ncccc4c3)C2)c1 (configuration not stated) | 1.16 | –
CCOC(=O)N1CCN(C(=O)CC2(c3ccc(-c4ccccc4)cc3)CC(=O)N(C)C2=O)CC1 (configuration not stated) | – | 0.996
CCc1ccc(CN2CCC(O)(Cc3cc(-c4cccc(OC)c4)no3)CC2)o1 | 0.976 | –
O=C(NCCc1ccccn1)c1csc2nc(-c3cccc(F)c3)cn12 | – | 0.925
CC(Cn1cccn1)Nc1ccc(-c2nc(-c3ccccc3F)no2)cn1 (configuration not stated) | 0.723 | –
CC1=C(C(=O)N2CCCCC2C(=O)Nc2cccc(-c3nnc(C)s3)c2)OCCO1 (configuration not stated) | – | 0.863
O=C(c1ccc(OC2CCN(C(=O)C3CC3)CC2)cc1)N(CCO)Cc1cccs1 | 0.856 | –
CSCCC(=O)NC1CC(=O)N(Cc2cccc(F)c2)C1 (configuration not stated) | 0.771 | –
